Assay results: PubChem BioAssay AID540256 (National Center for Advancing Translational Sciences (NCATS), 2011)
In all, about 300,000 compounds went through this assay and about 3,700 (1.2%) were called active. The inconclusive results got no clear call from the source; some entries with a clear call stand among them for comparison. Calls follow the shape of the full dose curve; tested in HEK293 cells. Where the call is inconclusive, the potency comes from a doubtful curve fit.

test: qHTS for Inhibitors of binding or entry into cells for Lassa Virus; settings: Lassa virus pseudotype entry inhibition, cell reporter; activity change, negative = inhibition: at 37.9 µM (top of the series) unless noted; also: nearly all actives have a fitted effect of over 50% in size
% is scaled to controls: 0 for no effect and ±100 for the full control effect; potency is read from the fitted curve at half-maximal effect.

SMILES	Potency	activity change, negative = inhibition
Cn1nc([N+](=O)[O-])nc1Oc1ccc(C(C)(C)C)cc1	inconclusive: 4.61 µM [inhibitor, single point]	
Cc1c(C(=O)NCc2ccccc2Br)oc2c1-c1[nH]ncc1CC2		inactive: 3.77% [at 46.1 µM]
CN(C)c1ccc(/C=N/N(CCC(=O)NC(C)(C)C)C2=NS(=O)(=O)c3ccccc32)cc1	inconclusive: 3.98 µM [inhibitor, full curve, poor fit]	
Cc1ccc(C(=O)CSc2nnnn2Cc2ccccc2)cc1C	inconclusive: 35.5 µM [inhibitor, single point]	
CCn1c(O)c(N=NC(=O)c2cccnc2)c2cc(Br)ccc21	inconclusive: 32.6 µM [inhibitor, single point]	
COc1ccc(CN(C(=O)c2ccco2)c2ccccc2)cc1		inactive: 3.43%
COc1cc(NC(=O)c2ccc(COCC(F)(F)F)o2)cc(OC)c1OC	inconclusive: 0.651 µM [inhibitor, full curve, poor fit]	
Cc1ccc(C(=O)NCc2ccco2)cc1S(=O)(=O)N1CCCC1	inconclusive: 14.1 µM [inhibitor, partial curve, poor fit]	
CC(=O)N=c1sc2cc(C)ccc2n1C		inactive: 18.8%
COc1ccc(NC(=O)C2CCC(=O)N2S(=O)(=O)c2ccc(C)cc2)cc1Cl (stereo not given)	inconclusive: 0.73 µM [activator, full curve, poor fit]	
CC(=O)c1cccc(NC(=O)C2CCCC2)c1		inactive: -10.5%
CC(C)(C)Cc1nnc(NC(=O)c2ccc([N+](=O)[O-])cc2)s1	inconclusive: 20 µM [activator, partial curve, poor fit]	
CCCCC1(CO)C(=O)N(c2ccccc2)N(c2ccccc2)C1=O		inactive: -20.7% [at 46.1 µM]
Cc1ccc(N2CCN(C(=O)Nc3cccc([N+](=O)[O-])c3)CC2C)cc1 (stereo not given)	inconclusive: 17.8 µM [inhibitor, single point]	
Cc1nc2ccccc2n1CCc1nc2c3ccccc3nc(SCC(=O)NCc3ccco3)n2n1	inconclusive: 29.1 µM [inhibitor, single point]	
O=C(NCc1ccccc1Cl)c1cnccc1C(F)(F)F		inactive: 0.159%
Cc1ccc(-c2nnc(-c3cccc4ccccc34)o2)cc1	inconclusive: 0.178 µM [activator, full curve, poor fit]	
O=C(COC(=O)c1cccs1)NC1CCCCC1	inconclusive: 35.5 µM [activator, single point]	
CCN(CC)C(=O)C1CCCN(C(=O)Nc2ccc(NC(=O)N3CCCC(C(=O)N(CC)CC)C3)cc2)C1 (stereo not given)	inconclusive: 6.51 µM [activator, single point]	
CCNc1oc(-c2ccc(OC)cc2)nc1S(=O)(=O)c1ccc(Br)cc1	inconclusive: 2.31 µM [inhibitor, partial curve, poor fit]	
O=C(NCc1ccccc1Cl)C(=O)NCC(c1cccs1)S(=O)(=O)c1cccs1 (stereo not given)	inconclusive: 35.5 µM [inhibitor, single point]	
CCOC(=O)c1c(NC(C)=O)sc2c1CCC(C=O)=C2Sc1ccccc1	inconclusive: 0.411 µM [inhibitor, partial curve, poor fit]	
Cc1cc(C)c2cc(CN(Cc3cccnc3)C(=O)c3ccc(F)cc3)c(Cl)nc2c1	inconclusive: 29.1 µM [inhibitor, single point]	

SMILES	Potency	activity change, negative = inhibition
Cc1ccc2nc(-c3ccc(O)cc3)c(Nc3ccc4c(c3)OCCO4)n2c1		inactive: -4.67% [at 46.1 µM]
Cc1c(C(=O)N2c3ccccc3Sc3ccccc32)cccc1[N+](=O)[O-]	inconclusive: 3.16 µM [inhibitor, partial curve, poor fit]	
Cc1cccc(C=Nc2ccccc2C(N)=O)c1	inconclusive: 2.06 µM [inhibitor, full curve]	
CCOC(=O)c1c(CN(CC)CC)n(-c2ccccc2)c2ccc(O)cc12		inactive: -13.7%
Cc1ccsc1/C=C(\C#N)C(=O)NCc1cccnc1		inactive: 3.66%
Fc1cccc(NC(=S)N2CCc3ccccc32)c1	inconclusive: 35.5 µM [inhibitor, single point]	
COc1cc(OC)cc(C(=O)Nc2ccc3nc(N4CCCCC4)cc(C)c3c2)c1	inconclusive: 3.16 µM [inhibitor, partial curve, poor fit]	
COc1ccc(-c2nnc(SCC(=O)N3CCCC(C)C3)o2)c(OC)c1 (stereo not given)		inactive: -0.045%
COc1ccc(/C=N/NC(=O)/C(=C/c2ccccc2)CCO)cc1		inactive: -13.4%
COc1ccc(C(CNC(=O)c2oc3ccc(C)cc3c2C)N2CCOCC2)cc1 (stereo not given)	inconclusive: 5.62 µM [inhibitor, full curve, poor fit]	
O=C(CCCOc1ccc(Cl)cc1)NCCc1ccccc1	inconclusive: 35.5 µM [inhibitor, single point]	
CC(C)CC(C(=O)NC1CCCCC1)N(Cc1ccccc1)C(=O)c1snc(C(N)=O)c1N (stereo not given)		inactive: -28.8% [at 46.1 µM]
CCN1CCN(c2ccc(NC(=O)c3cccc4ncccc34)cc2)CC1	inconclusive: 16.4 µM [activator, single point]	
Cc1ccc(NS(=O)(=O)c2ccc(C)c(NC(=O)COc3ccc4ccccc4c3)c2)c(C)c1	inconclusive: 22.4 µM [inhibitor, single point]	
C=C(C)COc1ccc(-c2n[nH]c(C)c2-c2ccc(Br)cc2)c(O)c1	active: 0.366 µM	
N#Cc1c(N)oc(-c2ccco2)c1-c1ccco1		inactive: -8.46%
COCc1cc(C)nc(SCC(=O)Nc2nc(C)cs2)c1C#N	inconclusive: 7.94 µM [inhibitor, partial curve, poor fit]	
CCCn1c(C)cc(C(=O)COC(=O)c2cc(S(=O)(=O)NCC(C)C)c(Cl)cc2Cl)c1C	inconclusive: 35.5 µM [inhibitor, single point]	
Cc1ccc(NC(=S)Nc2ccc3cn[nH]c3c2)cc1		inactive: -1.4%
CCc1ccc(OCCOCC(O)CNC2CCCC2)cc1 (stereo not given)	inconclusive: 6.31 µM [inhibitor, partial curve, poor fit]	
Cn1ccc2cc(S(=O)(=O)N3CCC(C(=O)NCCc4ccccc4)CC3)ccc21		inactive: -1.55% [at 46.1 µM]
O=C(CSc1ccccc1)Nc1nnc(COc2ccc(Cl)cc2)s1	inconclusive: 9.2 µM [inhibitor, partial curve, poor fit]	

Entries of single compounds as entered above:
`Cc1ccc(NS(=O)(=O)c2ccc(C)c(NC(=O)COc3ccc4ccccc4c3)c2)c(C)c1` is listed with Potency: inconclusive: 22.4 µM [inhibitor, single point]
`COCc1cc(C)nc(SCC(=O)Nc2nc(C)cs2)c1C#N` is listed with Potency: inconclusive: 7.94 µM [inhibitor, partial curve, poor fit]
`CCOC(=O)c1c(CN(CC)CC)n(-c2ccccc2)c2ccc(O)cc12` is listed with activity change, negative = inhibition: inactive: -13.7%
